Tags and fusion partners may be left off the protein sequences shown.
System: T1, GylR (Mycobacterium smegmatis)
T1 sequence (looked up): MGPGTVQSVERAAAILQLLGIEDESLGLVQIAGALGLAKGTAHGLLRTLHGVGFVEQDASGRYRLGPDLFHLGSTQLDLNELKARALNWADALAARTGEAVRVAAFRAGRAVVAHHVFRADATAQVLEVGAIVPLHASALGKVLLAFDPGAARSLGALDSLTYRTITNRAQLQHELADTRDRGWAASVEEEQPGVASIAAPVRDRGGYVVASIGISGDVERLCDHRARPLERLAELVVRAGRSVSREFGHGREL
Assay: EMSA
Conditions: no G3P; residues 1-254; probe letters rebuilt from the primers and the genome

“CACCCCGAACAGGATGAGGATGCCGGCGAACTCGGCGCAGAGTTCTCCGACGAGTGTTCGTCGTGACATGTTGGTCTCCTTGGCTCTTCGAACCGCATGTGTTGTGCGTCATACGAGGCGTGCGTTGTGAACCTAGAAGCCAGAGGTCGGCCGGGCATCACCCGTCGTTCGGCATCGCCGAACACGGCCCCGGTCGACAATGCCGACCCTCGGGGTCGACATGGTCGAACGATTTGGTGATCCTGAAACTTGTGCCAGGCACTGTGCAGTCCGTGGAACGGGCCGCGGCGATACTGCAGCTAC (double strand) [PglpFKD (glpFKD promoter)]”: binds.

Reference: publication doi:10.1101/2025.11.25.690588
